The subject of the series is spring wheat, TRZAS Triso. As to the kind of experiment: Safener seed treatment, post-emergence herbicide application, crop damage. The series is classed as in vivo. To be noted: cloquintocet-mexyl 0, 5 g a.i./kg seed. The source says: For safener seed treatment trials, sufficient seed amounts of the respective crops (spring wheat (TRZAS); spring barley (HORVS)) were weighed into screw cap glass bottles with a minimum volume trice of the seeds.
As a first step, specified safeners formulated as wettable powder (WP) or wettable granules (WG) were weighed out for the required dosages (g a.i./kg seed), corresponding to the seed amounts. The safener amounts were mixed with a coloured slurry blind formulation type, pre-diluted with milk at 3.5% fat rate (25 mgs slurry formulation plus 2 ml milk per 10 grams of seed). A tube roller was used for coating. The solutions were gradually pipetted each on the rotating seeds followed by coating for min. 3 hours until all liquid had been soaked up by the seeds. Thereafter, the coated seeds were put flat on open trays for drying over night at room temperature.
Treated seeds were then placed into pots (7 cm diameter) on the surface of sandy loam, pressed down, flat covered with additional soil and finally covered with sandy soil, also pressed down, watered, and kept under good growth conditions in a greenhouse, until the plants had reached 2-leaf-stage (BBCH 12).
At that stage, post-emergence application of the specified herbicides was done on: • a) pot sets containing plants with safener-coated seeds as described above, • b) as a reference, pot sets of plants without seed treatment.
The herbicides were formulated as wettable powder (WP). Equivalent to the spray area, compound amounts were weighed out and diluted related to the water application rate (300 l/ha) to an aqueous suspension plus additive (1 l/ha MERO). Dosage related equivalents were conventionally sprayed on trays with the potted plants.
After application, the test plants were kept under good growth conditions in a greenhouse. Assessment timings were 10 and 21 days after treatment (DAT) with the herbicide, by visual scoring of the crop damage in % (comparison of untreated with treated plants, either sprayed only with herbicide or with herbicide on plants with treated seeds).
Reduction [Difference]=herbicide damage without safener−herbicide damage with safener
Reduction [%]=(Reduction [Difference]*100)/herbicide damage without safener
b) Plant Species, Variety: TRZAS Triso, Safener (SAF): Cloquintocet-Mexyl

[1] abbreviates: 21 DAT, HER dose 1, 5 g a.i./ha.

In the case of `CC1(C(=O)NC2COC(C(=O)OCc3ccccc3)C2)CC(c2cccc(F)c2)=NO1` (mixture of isomers) [Example 1.79], the “Reduction [Difference]” value is 30 (10 DAT, HER dose 6 g a.i./ha) and 40 (10 DAT, HER dose 24 g a.i./ha).

With `C=CC1(C(=O)NC2CC=C(C(=O)OC)C2)CC(c2cc(F)cc(F)c2)=NO1` (mixture of isomers) [Example 1.60], the “Reduction [Difference]” value runs as follows: (21 DAT, HER dose 8 g a.i./ha) 83; (21 DAT, HER dose 32 g a.i./ha) 85.

In the case of `CC(C)OC(=O)C1CC(NC(=O)C2(C(C)(F)F)CC(c3cc(F)cc(F)c3)=NO2)CO1` (mixture of isomers) [Example 1.88], the “Reduction [Difference]” value is reported as 50 (21 DAT, HER dose 2 g a.i./ha) and 65 (21 DAT, HER dose 8 g a.i./ha).

For the molecule `C=CC1(C(=O)NC2COC(C(=O)OC)C2)CC(c2cc(F)cc(F)c2)=NO1` (mixture of isomers) [Example 1.68], the “Reduction [Difference]” value is, setting by setting: (21 DAT, HER dose 1 g a.i./ha) 60; (21 DAT, HER dose 4 g a.i./ha) 55.

`CC1(C(=O)NC2C=CC(C(=O)OCCCl)C2)CC(c2cc(F)cc(F)c2)=NO1` (mixture of isomers) [Example 1.47]: the “Reduction [Difference]” value by setting is: (21 DAT, HER dose 4 g a.i./ha) 20; (21 DAT, HER dose 16 g a.i./ha) 70.

On to `CC1(C(=O)NC2CC=C(C(=O)NS(C)(=O)=O)C2)CC(c2cc(F)cc(F)c2)=NO1` (mixture of isomers) [Example 1.61], for which the “Reduction [Difference]” value reads like this: (10 DAT, HER dose 8 g a.i./ha) 50; (10 DAT, HER dose 32 g a.i./ha) 50.

As for `COCCOC(=O)C1C=CC(NC(=O)C2(C(F)(F)F)CC(c3cc(F)cc(C#N)c3)=NO2)C1` (centres unmarked) [Example 1.2], the “Reduction [Difference]” value runs as follows: (10 DAT, HER dose 8 g a.i./ha) 90; (10 DAT, HER dose 32 g a.i./ha) 80.

For `C=CC1(C(=O)NC2COC(C(=O)OC)C2)CC(c2cc(C)cc(F)c2)=NO1` (mixture of isomers) [Example 1.71], the “Reduction [Difference]” value is, setting by setting: (10 DAT, HER dose 8 g a.i./ha) 50; (10 DAT, HER dose 32 g a.i./ha) 85.

With `C=CC1(C(=O)NC2C=CC(C(=O)O)C2)CC(c2cc(F)cc(F)c2)=NO1` (centres unmarked) [Example 1.58], the “Reduction [Difference]” value runs as follows: (21 DAT, HER dose 2 g a.i./ha) 85; (21 DAT, HER dose 8 g a.i./ha) 83; (21 DAT, HER dose 32 g a.i./ha) 73.

As for `CC1(C(=O)NC2C=CC(C(=O)O)C2)CC(c2cc(F)cc(F)c2)=NO1` (centres unmarked) [Example 1.36], the “Reduction [Difference]” value by setting is: (21 DAT, HER dose 1 g a.i./ha) 85; (21 DAT, HER dose 4 g a.i./ha) 33; (21 DAT, HER dose 16 g a.i./ha) 25.

Regarding `COCCOC(=O)C1C=CC(NC(=O)C2(C)CC(c3cc(Cl)cc(C#N)c3)=NO2)C1` (centres unmarked) [Example 1.5], the “Reduction [Difference]” value reads like this: (21 DAT, HER dose 8 g a.i./ha) 80; (21 DAT, HER dose 32 g a.i./ha) 65.

For `COC(=O)C1CC(NC(=O)C2(OC)CC(c3cc(F)cc(F)c3)=NO2)CO1` (mixture of isomers) [Example 1.72], the “Reduction [Difference]” value (21 DAT, HER dose 32 g a.i./ha) is on record as 50.

For the molecule `CSCCOC(=O)C1C=CC(NC(=O)C2(C(F)(F)F)CC(c3cc(F)cc(F)c3)=NO2)C1` (centres unmarked) [Example 1.7], the “Reduction [Difference]” value is, setting by setting: (10 DAT, HER dose 2 g a.i./ha) 50; (10 DAT, HER dose 8 g a.i./ha) 63; (10 DAT, HER dose 32 g a.i./ha) 43.

For the molecule `CC(C)OC(=O)C1CC(NC(=O)C2(C)CC(c3cccc(F)c3)=NO2)CO1` (mixture of isomers) [Example 1.78], the “Reduction [Difference]” value (10 DAT, HER dose 1, 5 g a.i./ha) is listed as 20; the “Reduction [Difference]” value (10 DAT, HER dose 6 g a.i./ha) was 70; the “Reduction [Difference]” value (10 DAT, HER dose 24 g a.i./ha) is listed as 60.

On to `C=CC1(C(=O)NC2COC(C(=O)OCCOC)C2)CC(c2cc(C)cc(F)c2)=NO1` (mixture of isomers) [Example 1.65], for which the “Reduction [Difference]” value (10 DAT, HER dose 8 g a.i./ha) is on record as 20.

On to `C=CC1(C(=O)NC2C=C(C(=O)OCC#N)OC2)CC(c2cc(F)cc(F)c2)=NO1` (centres unmarked) [Example 1.91], for which the “Reduction [Difference]” value under setting [1] is recorded as 50; the “Reduction [Difference]” value (21 DAT, HER dose 6 g a.i./ha) worked out at 60; the “Reduction [Difference]” value (21 DAT, HER dose 24 g a.i./ha) came to 60.

Take `COC(=O)C1(C)CC(NC(=O)C2(C(C)(F)F)CC(c3cc(F)cc(F)c3)=NO2)CO1` (mixture of isomers) [Example 1.94]: the “Reduction [Difference]” value reads like this: under setting [1], 20; (21 DAT, HER dose 6 g a.i./ha) 75; (21 DAT, HER dose 24 g a.i./ha) 65.

Take `COC(=O)C1COCC1NC(=O)C1(C)CC(c2cc(F)cc(F)c2)=NO1` (mixture of isomers) [Example 1.93]: the “Reduction [Difference]” value turned out to be 85 (21 DAT, HER dose 2 g a.i./ha); 83 (21 DAT, HER dose 8 g a.i./ha); 85 (21 DAT, HER dose 32 g a.i./ha).

As for `CCOC(=O)C1CC(NC(=O)C2(C)CC(c3cccc(F)c3)=NO2)CO1` (mixture of isomers) [Example 1.67], the “Reduction [Difference]” value reads like this: (10 DAT, HER dose 4 g a.i./ha) 40; (10 DAT, HER dose 16 g a.i./ha) 50.

In the case of `COC(=O)C1C=CC(NC(=O)C2(C)CC(c3cccc(F)c3)=NO2)C1` (centres unmarked) [Example 1.20], the “Reduction [Difference]” value by setting is: (10 DAT, HER dose 8 g a.i./ha) 20; (10 DAT, HER dose 32 g a.i./ha) 50.

As to `C=CC1(C(=O)NC2C=CC(C(=O)OC)C2)CC(c2cc(F)cc(F)c2)=NO1` (centres unmarked) [Example 1.26], the “Reduction [Difference]” value is 80 (21 DAT, HER dose 2 g a.i./ha) and 63 (21 DAT, HER dose 8 g a.i./ha).
